Consider seven molecules from PMC6639060.

By UniProt entry, the sequences of proteins in these tests, tags left out.
UniProt P19328: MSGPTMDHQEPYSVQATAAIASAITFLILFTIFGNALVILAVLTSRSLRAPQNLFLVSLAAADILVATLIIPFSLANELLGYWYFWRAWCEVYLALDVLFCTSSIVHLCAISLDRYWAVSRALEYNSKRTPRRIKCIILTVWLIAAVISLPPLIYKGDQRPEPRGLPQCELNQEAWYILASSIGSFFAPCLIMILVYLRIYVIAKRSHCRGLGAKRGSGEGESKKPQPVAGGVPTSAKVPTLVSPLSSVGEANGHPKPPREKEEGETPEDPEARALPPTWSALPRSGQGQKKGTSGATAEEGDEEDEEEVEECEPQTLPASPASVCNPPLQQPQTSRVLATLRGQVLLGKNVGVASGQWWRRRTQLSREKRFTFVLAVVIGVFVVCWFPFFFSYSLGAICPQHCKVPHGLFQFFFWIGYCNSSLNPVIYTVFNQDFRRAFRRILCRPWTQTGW
UniProt Q92609: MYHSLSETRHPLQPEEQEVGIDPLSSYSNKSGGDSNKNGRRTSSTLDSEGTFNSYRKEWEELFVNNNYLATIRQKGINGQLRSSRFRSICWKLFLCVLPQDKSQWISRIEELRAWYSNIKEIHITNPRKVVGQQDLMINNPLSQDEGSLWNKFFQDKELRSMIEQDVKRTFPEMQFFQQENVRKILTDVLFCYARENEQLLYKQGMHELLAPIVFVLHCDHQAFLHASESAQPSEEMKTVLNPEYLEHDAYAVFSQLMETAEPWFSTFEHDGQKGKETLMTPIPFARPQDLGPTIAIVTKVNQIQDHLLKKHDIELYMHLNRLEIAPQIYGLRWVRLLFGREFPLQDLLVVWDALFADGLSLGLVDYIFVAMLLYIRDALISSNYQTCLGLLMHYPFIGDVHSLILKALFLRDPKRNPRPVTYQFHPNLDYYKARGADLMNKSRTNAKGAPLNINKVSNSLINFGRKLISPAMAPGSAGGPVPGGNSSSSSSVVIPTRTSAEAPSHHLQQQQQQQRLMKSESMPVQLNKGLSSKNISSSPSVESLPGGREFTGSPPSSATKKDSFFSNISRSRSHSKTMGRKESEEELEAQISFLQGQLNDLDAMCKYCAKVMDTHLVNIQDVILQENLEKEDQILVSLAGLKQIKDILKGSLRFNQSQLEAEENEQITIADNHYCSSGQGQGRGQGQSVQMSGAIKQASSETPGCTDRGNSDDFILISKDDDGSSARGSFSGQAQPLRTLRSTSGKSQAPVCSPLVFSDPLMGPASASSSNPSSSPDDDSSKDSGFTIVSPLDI

Assay [1] concerns the target T1, GST-Rab26 (UniProt Q9ULW5).
T1 sequence: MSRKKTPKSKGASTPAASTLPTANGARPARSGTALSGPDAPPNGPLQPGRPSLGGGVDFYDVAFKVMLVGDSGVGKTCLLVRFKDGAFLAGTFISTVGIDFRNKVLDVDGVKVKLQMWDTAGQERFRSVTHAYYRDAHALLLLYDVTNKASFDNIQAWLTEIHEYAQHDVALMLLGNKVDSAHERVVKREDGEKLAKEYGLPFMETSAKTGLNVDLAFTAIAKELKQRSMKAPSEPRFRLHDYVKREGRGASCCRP
Description: pull-down; GST-Rab26 (wild type or mutant) fusion proteins (MagneGST pulldown system) incubated with total HEK293 cell lysates expressing TBC proteins or TBC1D6 domains; 500 μL binding buffer, 20 mM Tris-HCl pH 7.5, 140 m NaCl, 1% Nonidet P-40, 4 h at 4°C; bound proteins detected by immunoblotting; only the target purified.

The target of assay [2] is T1, GST-Rab26. The description is as above. The source holds these as a separate data set.
The next assay deals with T2, GST-Rab26Q123L (UniProt Q9ULW5).
T2 sequence: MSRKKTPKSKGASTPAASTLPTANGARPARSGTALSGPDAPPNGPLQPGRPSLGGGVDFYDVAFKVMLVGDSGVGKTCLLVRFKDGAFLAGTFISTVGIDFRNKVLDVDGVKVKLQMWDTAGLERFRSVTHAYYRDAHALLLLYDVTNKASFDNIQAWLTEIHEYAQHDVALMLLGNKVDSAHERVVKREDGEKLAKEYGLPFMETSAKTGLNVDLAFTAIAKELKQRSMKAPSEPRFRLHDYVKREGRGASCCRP
Described as above.

The next assay has as its target T3, GST-Rab26T77N (UniProt Q9ULW5).
T3 sequence: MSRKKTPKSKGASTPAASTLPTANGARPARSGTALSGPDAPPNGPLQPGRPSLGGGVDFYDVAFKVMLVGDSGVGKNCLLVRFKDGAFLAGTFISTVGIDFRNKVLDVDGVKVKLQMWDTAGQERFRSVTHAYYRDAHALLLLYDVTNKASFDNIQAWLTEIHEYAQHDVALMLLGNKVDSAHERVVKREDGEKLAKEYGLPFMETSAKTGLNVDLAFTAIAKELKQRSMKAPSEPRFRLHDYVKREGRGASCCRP
The assay is described as above.

Another assay deals with α2B-AR-Venus (UniProt P19328). Description: FRET or BRET; live cell BRET in HEK293 cells transfected with 0.1 μg Rab-Rluc8 and 1.5 μg α2B-AR-Venus plus 1.0 μg pCMV-myc vector or myc-TBC for 36 h.

Like-named read-outs stand apart in the source and are kept apart here. No constants are given. Whether binding was seen depends on the method and setting. Binding seen in cells or lysates may run through a third protein. Some entries that bind do so weakly or less than the wild type. Where a sequence is shown, tags or fusion partners need not be part of it.

For the molecule TBC1D5 (from UniProt Q92609 1-795), the binding entry in the assay with GST-Rab26 [1] is on record as “no binding”.

B1: RN-tre (protein, UniProt Q92738 1-828)
chain: MNSDQDVALKLAQERAEIVAKYDRGREGAEIEPWEDADYLVYKVTDRFGFLHEEELPDHNVAVERQKHLEIERTTKWLKMLKGWEKYKNTEKFHRRIYKGIPLQLRGEVWALLLEIPKMKEETRDLYSKLKHRARGCSPDIRQIDLDVNRTFRDHIMFRDRYGVKQQSLFHVLAAYSIYNTEVGYCQGMSQITALLLMYMNEEDAFWALVKLFSGPKHAMHGFFVQGFPKLLRFQEHHEKILNKFLSKLKQHLDSQEIYTSFYTMKWFFQCFLDRTPFTLNLRIWDIYIFEGERVLTAMSYTILKLHKKHLMKLSMEELVEFFQETLAKDFFFEDDFVIEQLQISMTELKRAKLDLPEPGKEDEYPKKPLGQLPPELQSWGVHHLSNGQRSVGRPSPLASGRRESGAPHRRHEHSPHPQSRTGTPERAQPPRRKSVEEESKKLKDEADFQRKLPSGPQDSSRQYNHAAANQNSNATSNIRKEFVPKWNKPSDVSATERTAKYTMEGKGRAAHPALAVTVPGPAEVRVSNVRPKMKALDAEDGKRGSTASQYDNVPGPELDSGASVEEALERAYSQSPRHALYPPSPRKHAEPSSSPSKVSNKFTFKVQPPSHARYPSQLDGEARGLAHPPSYSNPPVYHGNSPKHFPTANSSFASPQFSPGTQLNPSRRPHGSTLSVSASPEKSYSRPSPLVLPSSRIEVLPVDTGAGGYSGNSGSPKNGKLIIPPVDYLPDNRTWSEVSYTYRPETQGQSWTRDASRGNLPKYSAFQLAPFQDHGLPAVSVDSPVRYKASPAAEDASPSGYPYSGPPPPAYHYRNRDGLSIQESVLL
As for B1, the binding result with GST-Rab26 [2] is listed as “no binding”.

B2: TBC1D8B (protein, UniProt Q0IIM8 1-1120)
chain: MWLKPEEVLLKNALKLWLMERSNDYFVLQRRRGYGEEGGGGLTGLLVGTLDSVLDSTAKVAPFRILHQTPDSQVYLSIACGANREEITKHWDWLEQNIMKTLSVFDSNEDITNFVQGKIRGLIAEEGKHCFAKEDDPEKFREALLKFEKCFGLPEKEKLVTYYSCSYWKGRVPCQGWLYLSTNFLSFYSFLLGSEIKLIISWDEVSKLEKTSNVILTESIHVCSQGENHYFSMFLHINQTYLLMEQLANYAIRRLFDKETFDNDPVLYNPLQITKRGLENRAHSEQFNAFFRLPKGESLKEVHECFLWVPFSHFNTHGKMCISENYICFASQDGNQCSVIIPLREVLAIDKTNDSSKSVIISIKGKTAFRFHEVKDFEQLVAKLRLRCGAASTQYHDISTELAISSESTEPSDNFEVQSLTSQRECSKTVNTEALMTVFHPQNLETLNSKMLKEKMKEQSWKILFAECGRGVSMFRTKKTRDLVVRGIPETLRGELWMLFSGAVNDMATNPDYYTEVVEQSLGTCNLATEEIERDLRRSLPEHPAFQSDTGISALRRVLTAYAYRNPKIGYCQAMNILTSVLLLYAKEEEAFWLLVAVCERMLPDYFNRRIIGALVDQAVFEELIRDHLPQLTEHMTDMTFFSSVSLSWFLTLFISVLPIESAVNVVDCFFYDGIKAILQLGLAILDYNLDKLLTCKDDAEAVTALNRFFDNVTNKDSPLPSNVQQGSNVSDEKTSHTRVDITDLIRESNEKYGNIRYEDIHSMRCRNRLYVIQTLEETTKQNVLRVVSQDVKLSLQELDELYVIFKKELFLSCYWCLGCPVLKHHDPSLPYLEQYQIDCQQFRALYHLLSPWAHSANKDSLALWTFRLLDENSDCLINFKEFSSAIDIMYNGSFTEKLKLLFKLHIPPAYTEVKSKDASKGDELSKEELLYFSQLHVSKPANEKEAESAKHSPEKGKGKIDIQAYLSQWQDELFKKEENIKDLPRMNQSQFIQFSKTLYNLFHEDPEEESLYQAIAVVTSLLLRMEEVGRKLHSPTSSAKGFSGTVCGSGGPSEEKTGSHLEKDPCSFREEPQWSFAFEQILASLLNEPALVRFFEKPIDVKAKLENARISQLRSRTKM
Regarding B2, the binding result with GST-Rab26 [2] is “no binding”.

B3: TBC1D6 (protein, UniProt Q5TC63 1-336)
chain: MQPAERSRVPRIDPYGFERPEDFDDAAYEKFFSSYLVTLTRRAIKWSRLLQGGGVPRSRTVKRYVRKGVPLEHRARVWMVLSGAQAQMDQNPGYYHQLLQGERNPRLEDAIRTDLNRTFPDNVKFRKTTDPCLQRTLYNVLLAYGHHNQGVGYCQGMNFIAGYLILITNNEEESFWLLDALVGRILPDYYSPAMLGLKTDQEVLGELVRAKLPAVGALMERLGVLWTLLVSRWFICLFVDILPVETVLRIWDCLFNEGSKIIFRVALTLIKQHQELILEATSVPDICDKFKQITKGSFVMECHTFMQKIFSEPGSLSMATVAKLRESCRARLLAQG
Regarding B3, the binding result with GST-Rab26Q123L, with GST-Rab26 [2] and in the assay with GST-Rab26T77N was “binds” throughout.

B4: TBC1D20 (protein, UniProt Q96BZ9 1-403)
chain: MALRSAQGDGPTSGHWDGGAEKADFNAKRKKKVAEIHQALNSDPTDVAALRRMAISEGGLLTDEIRRKVWPKLLNVNANDPPPISGKNLRQMSKDYQQVLLDVRRSLRRFPPGMPEEQREGLQEELIDIILLILERNPQLHYYQGYHDIVVTFLLVVGERLATSLVEKLSTHHLRDFMDPTMDNTKHILNYLMPIIDQVNPELHDFMQSAEVGTIFALSWLITWFGHVLSDFRHVVRLYDFFLACHPLMPIYFAAVIVLYREQEVLDCDCDMASVHHLLSQIPQDLPYETLISRAGDLFVQFPPSELAREAAAQQQAERTAASTFKDFELASAQQRPDMVLRQRFRGLLRPEDRTKDVLTKPRTNRFVKLAVMGLTVALGAAALAVVKSALEWAPKFQLQLFP
For B4, in the assay with GST-Rab26 [2], the binding result is recorded as “no binding”.

B5: Rab26-Rluc8 (protein, UniProt Q9ULW5 1-256)
chain: MSRKKTPKSKGASTPAASTLPTANGARPARSGTALSGPDAPPNGPLQPGRPSLGGGVDFYDVAFKVMLVGDSGVGKTCLLVRFKDGAFLAGTFISTVGIDFRNKVLDVDGVKVKLQMWDTAGQERFRSVTHAYYRDAHALLLLYDVTNKASFDNIQAWLTEIHEYAQHDVALMLLGNKVDSAHERVVKREDGEKLAKEYGLPFMETSAKTGLNVDLAFTAIAKELKQRSMKAPSEPRFRLHDYVKREGRGASCCRP
Regarding B5, the binding result with α2B-AR-Venus was “binds”.

B6: TBC1D22A (protein, UniProt Q8WUA7 1-517)
chain: MASDGARKQFWKRSNSKLPGSIQHVYGAQHPPFDPLLHGTLLRSTAKMPTTPVKAKRVSTFQEFESNTSDAWDAGEDDDELLAMAAESLNSEVVMETANRVLRNHSQRQGRPTLQEGPGLQQKPRPEAEPPSPPSGDLRLVKSVSESHTSCPAESASDAAPLQRSQSLPHSATVTLGGTSDPSTLSSSALSEREASRLDKFKQLLAGPNTDLEELRRLSWSGIPKPVRPMTWKLLSGYLPANVDRRPATLQRKQKEYFAFIEHYYDSRNDEVHQDTYRQIHIDIPRMSPEALILQPKVTEIFERILFIWAIRHPASGYVQGINDLVTPFFVVFICEYIEAEEVDTVDVSGVPAEVLCNIEADTYWCMSKLLDGIQDNYTFAQPGIQMKVKMLEELVSRIDEQVHRHLDQHEVRYLQFAFRWMNNLLMREVPLRCTIRLWDTYQSEPDGFSHFHLYVCAAFLVRWRKEILEEKDFQELLLFLQNLPTAHWDDEDISLLLAEAYRLKFAFADAPNHYKK
B6: the binding result with GST-Rab26 [2] was “no binding”.
